No constants are given. Whether binding was seen depends on the method and setting. In cells and extracts the contact can be indirect. Binding calls can cover weak binding; strength is not graded here.
Legend:
[1] = target: Rab11 (mouse (endogenous in mLMECs)); experiment: co-IP; lysates of control or NRP2 siRNA-transfected mLMECs grown 48 h on fibronectin; 100 μg protein incubated overnight at 4°C with protein-G Dynabeads coupled to an antibody (anti-NRP2; in the reverse direction anti-ITGA5 or anti-Rab11); Western blot
[2] = target: α5 integrin (ITGA5) (mouse (endogenous in mLMECs)); experiment: as above

B1: Neuropilin-2 (NRP2) (receptor, UniProt O35375 21-931)
chain: RSQQDPPCGGRLNSKDAGYITSPGYPQDYPSHQNCEWIVYAPEPNQKIVLNFNPHFEIEKHDCKYDFIEIRDGDSESADLLGKHCGNIAPPTIISSGSVLYIKFTSDYARQGAGFSLRYEIFKTGSEDCSKNFTSPNGTIESPGFPEKYPHNLDCTFTILAKPRMEIILQFLTFDLEHDPLQVGEGDCKYDWLDIWDGIPHVGPLIGKYCGTKTPSKLRSSTGILSLTFHTDMAVAKDGFSARYYLIHQEPPENFQCNVPLGMESGRIANEQISASSTFSDGRWTPQQSRLHGDDNGWTPNLDSNKEYLQVDLRFLTMLTAIATQGAISRETQKGYYVKSYKLEVSTNGEDWMVYRHGKNHKIFQANNDATEVVLNKLHMPLLTRFIRIRPQTWHLGIALRLELFGCRVTDAPCSNMLGMLSGLIADTQISASSTREYLWSPSAARLVSSRSGWFPRNPQAQPGEEWLQVDLGTPKTVKGVIIQGARGGDSITAVEARAFVRKFKVSYSLNGKDWEYIQDPRTQQTKLFEGNMHYDTPDIRRFDPVPAQYVRVYPERWSPAGIGMRLEVLGCDWTDSKPTVETLGPTVKSEETTTPYPMDEDATECGENCSFEDDKDLQLPSGFNCNFDFPEETCGWVYDHAKWLRSTWISSANPNDRTFPDDKNFLKLQSDGRREGQYGRLISPPVHLPRSPVCMEFQYQAMGGHGVALQVVREASQESKLLWVIREDQGSEWKHGRIILPSYDMEYQIVFEGVIGKGRSGEISIDDIRISTDVPLENCMEPISAFAGEDFKVDIPETHGGEGYEDEIDDEYEGDWSNSSSSTSGAGDPSSGKEKSWLYTLDPILITIIAMSSLGVLLGATCAGLLLYCTCSYSGLSSRSCTTLENYNFELYDGLKHKVKINHQKCCSEA
binding [1]: binds
binding [2]: binds
